According to patent publication US20110053934A1, “COMPOUNDS AND METHODS OF TREATMENT” (GLAXOSMITHKLINE LLC, priority 2007, published 2011):
Some entries share one result that the patent states for a list of compounds.

Target: T1, ret kinase (intracellular portion of ret, amino acids 713-1072 of the short isoform) (Homo sapiens, UniProt P07949)
T1 sequence (P07949 713-1072 isoform P07949-2): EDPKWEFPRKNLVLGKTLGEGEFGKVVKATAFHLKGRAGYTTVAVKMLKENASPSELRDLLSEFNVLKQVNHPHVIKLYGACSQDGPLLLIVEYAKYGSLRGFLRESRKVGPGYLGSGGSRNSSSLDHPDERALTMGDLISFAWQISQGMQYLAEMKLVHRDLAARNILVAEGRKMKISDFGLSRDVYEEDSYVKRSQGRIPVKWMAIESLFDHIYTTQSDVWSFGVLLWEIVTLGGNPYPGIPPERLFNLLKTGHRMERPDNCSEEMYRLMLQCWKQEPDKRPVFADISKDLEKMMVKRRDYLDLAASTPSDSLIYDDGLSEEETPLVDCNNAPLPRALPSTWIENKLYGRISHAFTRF
Experiment: Ret kinase enzyme assay
Type: biochemical
Procedure: The ret kinase assay used the intracellular portion of ret (amino acids 713-1072 of the short isoform) produced in SF9 insect cells and purified on a nickel column. The assay was performed in a 45 μL volume with increasing concentrations of tyrosine kinase inhibitor (TKI) in triplicate in a 96-well plate format as follows: • 4.5 μL 500 mM Morpholinopropanesulfonic acid, pH 7.4 • 4.5 μL 100 μM adenosine triphosphate • 4.5 μL 250 mM MgCl2 • 1.0 μL γ-ATP^33 (1 microCi)(3000 Ci/mMol) • 2.04 (5 mg/ml) poly Glutamic acid-Tyrosine (Sigma (P-0275)) • 234H20 • 1.04 recombinant ret (100 ng) • 4.5 μL 10× Tyrosine kinase inhibitor
The components were incubated in triplicate for 30 minutes at room temperature within a 96-well plate in triplicate. The reaction was stopped by adding 45 μL 0.5% H3PO4 to each well. 75 μL of the reaction mixture was spotted onto phosphocellulose paper (Millipore, cat #MAPHN0B50) and was washed 3 times with 2004 0.5% H3PO4. Each phosphocellulase filter was transferred into a separate scintillation vial, 1 ml cytoscint fluid was added, and the sample counted on a Packard 1900TR liquid scintillation analyzer for 1 minute.
Concentrations of Example 1 tested in the ret enzyme kinase assay to determine the IC50 were 0, 0.5, 1, 5, 10, 50, 100, and 250 nM.

SMILES | inhibitory activity versus ret-kinase
CS(=O)(=O)c1ccc2nccc(Nc3cc(O)c(F)cc3Cl)c2c1.Cl [Example 6, 4-chloro-2-fluoro-5-{[6-(methysulfonuyl)-4-quinolinyl]amino}phenol] | showed inhibitory activity
Oc1cc(Nc2ccnc3cc(-c4cc5ccccc5o4)ccc23)ccc1Br [Example 3, 5-{[7-(1-benzofuran-2-yl)-4-quinolinyl]amino}-2-bromophenol] | showed inhibitory activity
Oc1cccc(Nc2ccnc3cc(-c4ccccn4)ccc23)c1 [Example 1, 3-{[7-(2-pyridinyl)-4-quinolinyl]amino}phenol] | showed inhibitory activity
